Experimental data: PubChem BioAssay AID504774 (Drosophila RNAi Screening Center, 2011)
The screen tested about 23,000 reagents; below is an unselected part of those that have a named target and a result. 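Values are quantile-normalised luminescence on an arbitrary scale; higher means more cells surviving MMS.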 Reagents against one gene are numbered here. Names joined by + are all predicted targets of the reagent. Not all columns of the deposit are shown.

Purpose: 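Knock-downs that shift viability of MMS-exposed cells relative to untreated ones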 (primary screen)
Cells: Drosophila Kc167 cells
Reagents: long dsRNA against Drosophila genes, about 0.25 µg dsRNA per well
Timing: about 6 days: 3 days knock-down, then 3 days with or without MMS
Treatment: methyl methanesulphonate 0.004% (w/v) for 3 days after knock-down
Read-out: 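Viability in wells given MMS, read as ATP luminescence, normalised by quantiles plate by plate and averaged across replicates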
Scale: mean viability with MMS and viability with MMS: higher = more surviving cells after MMS

| gene knocked down | dsRNA no. | mean viability with MMS | viability with MMS, replicate 1 |
| --- | --- | --- | --- |
| CG16813 | 1 | 3.62e6 | 4.05e6 |
| Npc2h | 1 | 3.57e6 | 4.13e6 |
| rogdi | 1 | 3.48e6 | 4.01e6 |
| Acyp | 1 | 3.54e6 | 4.05e6 |
| Iswi | 1 | 2.99e6 | 3.81e6 |
| GluRIB + CG42509 (retired record) | 1 | 3.57e6 | 4.25e6 |
| GluRIB + CG42509 (retired record) | 2 | 3.54e6 | 4.15e6 |
| pb | 1 | 3.58e6 | 4.12e6 |
| pb | 2 | 3.33e6 | 3.81e6 |
| CG10973 | 1 | 3.51e6 | 4.03e6 |
| CG33958 | 1 | 3.57e6 | 4.06e6 |
| CG33958 | 2 | 3.58e6 | 4.03e6 |
| rec | 1 | 3.57e6 | 4.18e6 |
| rec | 2 | 3.59e6 | 4.04e6 |
| CG17186 | 1 | 3.62e6 | 4.31e6 |
| Slob (retired record) | 1 | 3.63e6 | 4.11e6 |
| CG13133 | 1 | 3.79e6 | 4.12e6 |
| Cpr65Av | 1 | 3.59e6 | 4.09e6 |
| CG8155 | 1 | 3.72e6 | 4.24e6 |
| CG8155 | 2 | 3.40e6 | 3.94e6 |
| dare + CG30033 | 1 | 3.53e6 | 4.00e6 |
| mRpL42 | 1 | 3.62e6 | 4.07e6 |
| CG13082 | 1 | 3.48e6 | 3.89e6 |
| CG14329 | 1 | 3.27e6 | 3.72e6 |
| exp | 1 | 3.25e6 | 3.24e6 |
| CG4563 | 1 | 3.58e6 | 4.00e6 |
| beat-IIIb | 1 | 3.60e6 | 4.06e6 |
| CG18095 | 1 | 3.59e6 | 4.09e6 |
| Ir94d | 1 | 3.52e6 | 4.04e6 |
| Zip88E | 1 | 3.67e6 | 4.03e6 |
| RanGAP | 1 | 3.55e6 | 4.04e6 |
| CG42561 | 1 | 3.52e6 | 4.00e6 |
| Jwa | 1 | 3.69e6 | 4.01e6 |
| Ork1 | 1 | 3.62e6 | 4.21e6 |
| Ir85a | 1 | 3.59e6 | 4.12e6 |
| Mabi | 1 | 3.76e6 | 3.94e6 |
| TwdlE | 1 | 3.64e6 | 4.22e6 |
| CCHa2-R | 1 | 3.39e6 | 3.89e6 |
| CCHa2-R | 2 | 3.43e6 | 4.02e6 |
| CCHa2-R | 3 | 3.34e6 | 3.86e6 |
| CG17618 (retired record) + CG45049 | 1 | 3.74e6 | 4.17e6 |
| CG17618 (retired record) + CG45049 | 2 | 2.56e6 | 3.68e6 |
| CG17618 (retired record) + CG45049 | 3 | 3.61e6 | 4.09e6 |
| CG15820 | 1 | 3.48e6 | 3.96e6 |

Single entries from the entries so far.
Result for CG15820 in “mean viability with MMS”: 3.48e6
Npc2h, viability with MMS, replicate 1 → 4.13e6
Under “viability with MMS, replicate 1”, CG10973 reads 4.03e6
rec #2, viability with MMS, replicate 1 = 4.04e6

The listing continues:
| gene knocked down | dsRNA no. | mean viability with MMS | viability with MMS, replicate 1 |
| --- | --- | --- | --- |
| CG43740 | 1 | 3.68e6 | 4.04e6 |
| CG43740 | 2 | 3.62e6 | 4.07e6 |
| Mnt | 1 | 3.37e6 | 3.80e6 |
| Mnt | 2 | 3.61e6 | 3.95e6 |
| Tmep | 1 | 3.61e6 | 4.13e6 |
| lqf | 1 | 3.59e6 | 4.19e6 |
| Roe1 | 1 | 3.62e6 | 4.15e6 |
| Taf7 | 1 | 3.36e6 | 3.88e6 |
| fs(2)ltoPP43 | 1 | 3.53e6 | 3.96e6 |
| CG18557 | 1 | 3.38e6 | 3.82e6 |
| Sara | 1 | 3.60e6 | 4.03e6 |
| ey | 1 | 3.51e6 | 4.07e6 |
| CG13369 | 1 | 3.51e6 | 4.00e6 |
| kek6 | 1 | 3.50e6 | 3.97e6 |
| CG15602 | 1 | 3.51e6 | 3.98e6 |
| frac | 1 | 3.52e6 | 4.10e6 |
| Gld | 1 | 3.53e6 | 4.01e6 |
| ATP8 (retired record) | 1 | 3.48e6 | 3.92e6 |
| CG13384 | 1 | 3.42e6 | 4.01e6 |
| CG9308 | 1 | 3.50e6 | 3.96e6 |
| Dph4 | 1 | 3.53e6 | 4.00e6 |
| CG8301 | 1 | 3.44e6 | 3.87e6 |
| firl | 1 | 3.83e6 | 4.32e6 |
| CG15283 | 1 | 3.66e6 | 4.14e6 |
